Binding signal data for 42 sequences are collected here from paper PMC7819943, “Rice protein-binding microarrays: a tool to detect cis-acting elements near promoter regions in rice”.

The chains behind the UniProt entries cited, without tags or fusion partners.
UniProt Q0JBA9, entry or part of it: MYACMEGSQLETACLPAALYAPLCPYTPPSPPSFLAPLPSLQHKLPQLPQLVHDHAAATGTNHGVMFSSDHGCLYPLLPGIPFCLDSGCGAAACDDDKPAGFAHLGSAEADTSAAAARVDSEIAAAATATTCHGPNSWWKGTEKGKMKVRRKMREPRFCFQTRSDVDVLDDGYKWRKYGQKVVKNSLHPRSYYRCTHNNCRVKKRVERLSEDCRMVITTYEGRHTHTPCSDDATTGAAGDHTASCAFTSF

Some of the results follow.

For this assay, the target named is OsWRKY34 (Oryza sativa, UniProt Q0JBA9 1-250). Put plainly: protein-binding microarray (RPBM); PBS, 2% BSA, 51.3 ng/ul salmon testes DNA, 50 uM zinc acetate, 200 nM TF, 25 C, 1 h; high values mean tight binding. To be noted: protein: recombinant; tags: N-terminal polyhistidine and DsRed monomer fusion (pET32a); label: CyDye5-dUTP incorporated in the synthesized complementary strand; 3' TTTTT single-stranded linker to array surface; dsDNA, one strand shown. In a few lines: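 Transcription factors, each fused N-terminally to a polyhistidine tag and DsRed, were expressed in E. coli BL21-CodonPlus and purified on Ni–NTA. A custom Agilent array was made double-stranded by primer extension with Cy5-dUTP and blocked with 2% BSA. It was incubated with 200 nM protein in PBS, 2% BSA, salmon testes DNA and 50 µM zinc acetate at 25 °C for 1 h, then washed. The binding signal is per-feature fluorescence intensity (arbitrary units) read on an Axon 4000B scanner.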
“GCTTCGCCTGCCGCTCCGGCCCATCAAAGCTTTTCCATCCCGGAGTCACCTAGTGCAG”: the binding signal was 10900 fluorescence intensity (a.u.).

“CCCATCACCATAACCCTCTCACATCCTTCATCATGCATTACGGAGTCACCTAGTGCAG”: the binding signal was 8880 fluorescence intensity (a.u.).

As for “TTTTAATGTGTCGTTCTCCAATCCTGCAAAACGCGTTCACCGGAGTCACCTAGTGCAG”, the binding signal is 9130 fluorescence intensity (a.u.).

Take “ACACACAAACTTCCAACTTTTCCATCACATCGTTCCAATTCGGAGTCACCTAGTGCAG”: the binding signal is 11500 fluorescence intensity (a.u.).

Take “TCGCTCACCTCGCGGTGTGCCCCTCCGTCGCCAGCTTTCCCGGAGTCACCTAGTGCAG”: the binding signal is 9640 fluorescence intensity (a.u.).

In the case of “GGTCGAGAAGGCTTGTTTTTCTATTCCTAGTTTCTATCACCGGAGTCACCTAGTGCAG”, the binding signal was 8160 fluorescence intensity (a.u.).

With “ATTGCAGTGATTAATTTTTGTCTCATTTACGCTTCATTCACGGAGTCACCTAGTGCAG”, the binding signal was 11100 fluorescence intensity (a.u.).

In the case of “GTTTTTGCTTTTAAAGTTTGACCACTCGTCTTATTTAATTCGGAGTCACCTAGTGCAG”, the binding signal was 10900 fluorescence intensity (a.u.).

Consider “CACCCACCCACGCACGCACAAACAGACGCAGACAGACACACGGAGTCACCTAGTGCAG”, for which the binding signal was 8860 fluorescence intensity (a.u.).

Turning to “AGGGAGAGTGTGGGTGCGTGGGGCATATGGTGGTGCGGTGCGGAGTCACCTAGTGCAG”, the binding signal was 9950 fluorescence intensity (a.u.).

As to “CACTTCCTACTTTCATTTAGTGCTGACTTGTTGCAACTTTCGGAGTCACCTAGTGCAG”, the binding signal is 9320 fluorescence intensity (a.u.).

On to “TGGTATAAAACGCCCGCCTAATCTCCTTCGCTCTCTTCTTCGGAGTCACCTAGTGCAG”, for which the binding signal is 9260 fluorescence intensity (a.u.).

In the case of “TCCCATACCTTCCTGATATTCGCGTTTTTTTTATCAGTTTCGGAGTCACCTAGTGCAG”, the binding signal is 11900 fluorescence intensity (a.u.).

Turning to “TATTCTTACTTTATTATTATTGTGGTTTTTCCTGTCTACGCGGAGTCACCTAGTGCAG”, the binding signal is 9820 fluorescence intensity (a.u.).

With “AACCAACCAACCACGTCGATCGCTCGCAGTCGCCGCCGCGCGGAGTCACCTAGTGCAG”, the binding signal was 8700 fluorescence intensity (a.u.).

“AGCTCTAGTCAAACGTCATTTGGACTAGCTATGGTTCATTCGGAGTCACCTAGTGCAG”: the binding signal was 8140 fluorescence intensity (a.u.).

“AACACATGTTTTAACCTATTTTTTATCATTATTTCCTATCCGGAGTCACCTAGTGCAG”: the binding signal was 8590 fluorescence intensity (a.u.).

In the case of “ATAATCTCGAGCGATATCGTCTCACCGGCGTCAGCGTGCACGGAGTCACCTAGTGCAG”, the binding signal is 8830 fluorescence intensity (a.u.).

Regarding “GCAAAATATCAGTTTTCTCCACACCCACAGTTCAGCTGCCCGGAGTCACCTAGTGCAG”, the binding signal was 9240 fluorescence intensity (a.u.).

As to “TTCTCAATTCCAAACTTCAACTTTCCCGTTTACCGTTAGCCGGAGTCACCTAGTGCAG”, the binding signal was 10400 fluorescence intensity (a.u.).

For the sequence “AACTCGGTGGTGACCACGCGTCCACATCTCTCATCTTTCTCGGAGTCACCTAGTGCAG”, the binding signal was 11000 fluorescence intensity (a.u.).

In the case of “GATGTGCCATGACATCGCGCGTCACCTTTTTATTTTTCTCCGGAGTCACCTAGTGCAG”, the binding signal was 8140 fluorescence intensity (a.u.).

As for “CGCGCCGCGCGGCGAGGGTGGTGGTGGGTGAGCGGCGAGCCGGAGTCACCTAGTGCAG”, the binding signal is 10200 fluorescence intensity (a.u.).

Regarding “GTTCCACCATTTAATCGCGTGGGACCCACCTTGAACATAGCGGAGTCACCTAGTGCAG”, the binding signal was 8880 fluorescence intensity (a.u.).

As for “TTTACTAAACTCGATCAGTTCTTCCCATATACTCTTGTGACGGAGTCACCTAGTGCAG”, the binding signal is 9070 fluorescence intensity (a.u.).

For “CCACACTGCGACGCAACTCTTGTCTCTACTGTTTTATCTCCGGAGTCACCTAGTGCAG”, the binding signal was 12800 fluorescence intensity (a.u.).

In the case of “AACTCTTTCTGCCCACTTCCTCAACCCATGCTTATCTACCCGGAGTCACCTAGTGCAG”, the binding signal was 8240 fluorescence intensity (a.u.).

On to “TGATGATGCACGCTGATTGACCGTTCTATGCAGATCCCATCGGAGTCACCTAGTGCAG”, for which the binding signal was 10100 fluorescence intensity (a.u.).

For “CAACCTCACCTACTTCCACTTCCTCGACACCAACGGCGTCCGGAGTCACCTAGTGCAG”, the binding signal is 9590 fluorescence intensity (a.u.).

Consider “ACCGTCGCTAAGAAACTCTTCCACGGCTACTTGCCTCTCTCGGAGTCACCTAGTGCAG”, for which the binding signal is 8380 fluorescence intensity (a.u.).

As to “AGAGAGAAATATGTTTTTTTGGGTTGGGACACTTATTGAGCGGAGTCACCTAGTGCAG”, the binding signal was 9940 fluorescence intensity (a.u.).

With “GTTAGGGAGGAAGAGATGGCGACACTGTTTTGTTGGAGTCCGGAGTCACCTAGTGCAG”, the binding signal was 8460 fluorescence intensity (a.u.).

Turning to “TCGGTACAATTCCCTACCAAGTTCATCGTATTTTTTTTTCCGGAGTCACCTAGTGCAG”, the binding signal was 9780 fluorescence intensity (a.u.).

For “CAGGAGCTTTTTCAGCCGGCATGTCTCTAATTGTCTTCCACGGAGTCACCTAGTGCAG”, the binding signal was 8110 fluorescence intensity (a.u.).

On to “GCTTTTCCCACCTCAGACGCACTCCCGCGAAGTACCGTTACGGAGTCACCTAGTGCAG”, for which the binding signal was 8870 fluorescence intensity (a.u.).

As for “GGTTGTTTTTTTTCTCTCCTTGGTATAAGTTGGTCTAGCTCGGAGTCACCTAGTGCAG”, the binding signal was 8390 fluorescence intensity (a.u.).

For “TCAGTGCTCGATGCATACCCACATGTGAAGTCTTGGATCACGGAGTCACCTAGTGCAG”, the binding signal was 8840 fluorescence intensity (a.u.).

For the sequence “TAATGTCAAACTTTTATAACTTTGACCATCAATAACTTTACGGAGTCACCTAGTGCAG”, the binding signal was 9030 fluorescence intensity (a.u.).

Take “GCGGCGCTCCGCCCTCCGGTATAAACCGCGCGCCTCTCGACGGAGTCACCTAGTGCAG”: the binding signal is 8360 fluorescence intensity (a.u.).

As to “CTTCCTATCGTCTTATTCAACTCTACATTTTGTTAAGAAGCGGAGTCACCTAGTGCAG”, the binding signal is 8770 fluorescence intensity (a.u.).

As for “CTCGCCGGCGTCGTCTCCTCCCGCGCGCCACCCAAAAATACGGAGTCACCTAGTGCAG”, the binding signal is 8580 fluorescence intensity (a.u.).

Regarding “CTCTTTCACGTGTTTGACTTACATGGTTGCTTCACTTTTTCGGAGTCACCTAGTGCAG”, the binding signal was 11900 fluorescence intensity (a.u.).
